{"source": "patent US10457689B2", "about": "“Ammonium derivatives, a process for their preparation and pharmaceutical compositions containing them” (LES LABORATOIRES SERVIER, priority 2016, dated 2019)", "experiment": "Solubility test Method 2", "assay_type": "physicochemical", "conditions": "Method 2: aqueous phosphate buffer 67.7 mM, pH 7.4, room temperature", "method": "Samples (40 mg/mL) were diluted in aqueous phosphate buffer (67.7 mM, with pH adjusted at 7.4) used for in vivo studies. Samples were shaked at room temperature, then filtered. The solubilized fraction was quantified by LC-MS-MS analysis.", "note": "Some results were stated once for a whole list of compounds, not compound by compound. At least one compound was matched to its structure with a doubt left."}
{"smiles": "COc1ccccc1-c1nccc(COc2ccccc2C[C@@H](Oc2ncnc3sc(-c4ccc(F)cc4)c(-c4ccc(OCCN5CC[N+](C)(COP(=O)([O-])O)CC5)c(Cl)c4C)c23)C(=O)O)n1", "note": "[Example 1, {4-[2-(4-{(5Sa)-4-[(1R)-1-carboxy-2-(2-{[2-(2-methoxyphenyl)pyrimidin-4-yl]methoxy}phenyl)ethoxy]-6-(4-fluorophenyl)thieno[2,3-d]pyrimidin-5-yl}-2-chloro-3-methylphenoxy)ethyl]-1-methylpiperazin-1-ium-1-yl}methyl hydrogen phosphate]", "values": [{"measurement": "solubility", "result": "> 35", "unit": "mg/mL"}]}
